The supplement of paper PMC10849652
The other results are listed elsewhere or left out.

The chains behind the UniProt entries cited, without tags or fusion partners. Where a name states a change or a piece, a line headed by the entry shows the natural chain unless it says otherwise.
UniProt Q86T03: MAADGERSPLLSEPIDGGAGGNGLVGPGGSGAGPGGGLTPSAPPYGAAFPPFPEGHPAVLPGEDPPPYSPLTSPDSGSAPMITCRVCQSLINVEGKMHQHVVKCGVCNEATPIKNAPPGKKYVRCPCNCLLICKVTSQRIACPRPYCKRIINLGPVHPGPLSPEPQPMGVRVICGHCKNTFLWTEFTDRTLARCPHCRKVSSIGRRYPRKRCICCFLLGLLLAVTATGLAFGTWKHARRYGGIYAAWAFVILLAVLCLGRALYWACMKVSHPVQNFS
UniProt Q8NEB9, whole entry, looked up: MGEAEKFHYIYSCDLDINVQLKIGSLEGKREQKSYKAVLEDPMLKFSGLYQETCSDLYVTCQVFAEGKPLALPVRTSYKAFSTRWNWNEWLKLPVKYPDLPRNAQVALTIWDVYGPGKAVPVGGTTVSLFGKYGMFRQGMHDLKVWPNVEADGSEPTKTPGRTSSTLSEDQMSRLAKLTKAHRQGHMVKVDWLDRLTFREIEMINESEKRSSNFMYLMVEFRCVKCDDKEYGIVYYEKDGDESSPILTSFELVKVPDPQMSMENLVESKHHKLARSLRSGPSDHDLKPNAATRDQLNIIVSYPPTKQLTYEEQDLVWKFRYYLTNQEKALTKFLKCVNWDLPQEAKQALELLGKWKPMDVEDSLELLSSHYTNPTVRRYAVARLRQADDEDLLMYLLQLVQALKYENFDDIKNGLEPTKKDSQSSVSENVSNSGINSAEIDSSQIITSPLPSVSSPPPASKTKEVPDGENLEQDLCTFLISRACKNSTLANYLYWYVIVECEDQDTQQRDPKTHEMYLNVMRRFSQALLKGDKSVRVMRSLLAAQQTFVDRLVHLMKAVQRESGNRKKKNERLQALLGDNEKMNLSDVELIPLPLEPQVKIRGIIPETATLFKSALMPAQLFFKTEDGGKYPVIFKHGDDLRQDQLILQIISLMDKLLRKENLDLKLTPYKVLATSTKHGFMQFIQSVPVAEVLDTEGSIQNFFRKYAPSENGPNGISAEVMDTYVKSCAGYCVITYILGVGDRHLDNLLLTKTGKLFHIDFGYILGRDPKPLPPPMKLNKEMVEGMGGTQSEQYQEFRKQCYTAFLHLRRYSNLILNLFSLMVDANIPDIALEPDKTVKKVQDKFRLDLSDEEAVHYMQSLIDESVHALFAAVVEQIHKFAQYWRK
UniProt Q8TCG2: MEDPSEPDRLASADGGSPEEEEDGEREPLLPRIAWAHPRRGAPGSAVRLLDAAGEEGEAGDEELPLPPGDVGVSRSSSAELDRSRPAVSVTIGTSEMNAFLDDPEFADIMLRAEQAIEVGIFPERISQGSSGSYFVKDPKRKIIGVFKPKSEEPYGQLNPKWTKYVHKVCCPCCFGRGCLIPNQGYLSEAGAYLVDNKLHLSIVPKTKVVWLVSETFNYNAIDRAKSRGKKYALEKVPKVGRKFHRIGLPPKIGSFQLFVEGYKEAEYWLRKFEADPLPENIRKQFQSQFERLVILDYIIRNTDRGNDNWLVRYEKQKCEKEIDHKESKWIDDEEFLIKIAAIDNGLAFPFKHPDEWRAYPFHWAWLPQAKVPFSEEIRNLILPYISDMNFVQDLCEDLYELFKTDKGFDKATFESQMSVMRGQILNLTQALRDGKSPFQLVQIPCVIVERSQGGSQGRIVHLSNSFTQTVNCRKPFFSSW
UniProt P42356, whole entry, looked up: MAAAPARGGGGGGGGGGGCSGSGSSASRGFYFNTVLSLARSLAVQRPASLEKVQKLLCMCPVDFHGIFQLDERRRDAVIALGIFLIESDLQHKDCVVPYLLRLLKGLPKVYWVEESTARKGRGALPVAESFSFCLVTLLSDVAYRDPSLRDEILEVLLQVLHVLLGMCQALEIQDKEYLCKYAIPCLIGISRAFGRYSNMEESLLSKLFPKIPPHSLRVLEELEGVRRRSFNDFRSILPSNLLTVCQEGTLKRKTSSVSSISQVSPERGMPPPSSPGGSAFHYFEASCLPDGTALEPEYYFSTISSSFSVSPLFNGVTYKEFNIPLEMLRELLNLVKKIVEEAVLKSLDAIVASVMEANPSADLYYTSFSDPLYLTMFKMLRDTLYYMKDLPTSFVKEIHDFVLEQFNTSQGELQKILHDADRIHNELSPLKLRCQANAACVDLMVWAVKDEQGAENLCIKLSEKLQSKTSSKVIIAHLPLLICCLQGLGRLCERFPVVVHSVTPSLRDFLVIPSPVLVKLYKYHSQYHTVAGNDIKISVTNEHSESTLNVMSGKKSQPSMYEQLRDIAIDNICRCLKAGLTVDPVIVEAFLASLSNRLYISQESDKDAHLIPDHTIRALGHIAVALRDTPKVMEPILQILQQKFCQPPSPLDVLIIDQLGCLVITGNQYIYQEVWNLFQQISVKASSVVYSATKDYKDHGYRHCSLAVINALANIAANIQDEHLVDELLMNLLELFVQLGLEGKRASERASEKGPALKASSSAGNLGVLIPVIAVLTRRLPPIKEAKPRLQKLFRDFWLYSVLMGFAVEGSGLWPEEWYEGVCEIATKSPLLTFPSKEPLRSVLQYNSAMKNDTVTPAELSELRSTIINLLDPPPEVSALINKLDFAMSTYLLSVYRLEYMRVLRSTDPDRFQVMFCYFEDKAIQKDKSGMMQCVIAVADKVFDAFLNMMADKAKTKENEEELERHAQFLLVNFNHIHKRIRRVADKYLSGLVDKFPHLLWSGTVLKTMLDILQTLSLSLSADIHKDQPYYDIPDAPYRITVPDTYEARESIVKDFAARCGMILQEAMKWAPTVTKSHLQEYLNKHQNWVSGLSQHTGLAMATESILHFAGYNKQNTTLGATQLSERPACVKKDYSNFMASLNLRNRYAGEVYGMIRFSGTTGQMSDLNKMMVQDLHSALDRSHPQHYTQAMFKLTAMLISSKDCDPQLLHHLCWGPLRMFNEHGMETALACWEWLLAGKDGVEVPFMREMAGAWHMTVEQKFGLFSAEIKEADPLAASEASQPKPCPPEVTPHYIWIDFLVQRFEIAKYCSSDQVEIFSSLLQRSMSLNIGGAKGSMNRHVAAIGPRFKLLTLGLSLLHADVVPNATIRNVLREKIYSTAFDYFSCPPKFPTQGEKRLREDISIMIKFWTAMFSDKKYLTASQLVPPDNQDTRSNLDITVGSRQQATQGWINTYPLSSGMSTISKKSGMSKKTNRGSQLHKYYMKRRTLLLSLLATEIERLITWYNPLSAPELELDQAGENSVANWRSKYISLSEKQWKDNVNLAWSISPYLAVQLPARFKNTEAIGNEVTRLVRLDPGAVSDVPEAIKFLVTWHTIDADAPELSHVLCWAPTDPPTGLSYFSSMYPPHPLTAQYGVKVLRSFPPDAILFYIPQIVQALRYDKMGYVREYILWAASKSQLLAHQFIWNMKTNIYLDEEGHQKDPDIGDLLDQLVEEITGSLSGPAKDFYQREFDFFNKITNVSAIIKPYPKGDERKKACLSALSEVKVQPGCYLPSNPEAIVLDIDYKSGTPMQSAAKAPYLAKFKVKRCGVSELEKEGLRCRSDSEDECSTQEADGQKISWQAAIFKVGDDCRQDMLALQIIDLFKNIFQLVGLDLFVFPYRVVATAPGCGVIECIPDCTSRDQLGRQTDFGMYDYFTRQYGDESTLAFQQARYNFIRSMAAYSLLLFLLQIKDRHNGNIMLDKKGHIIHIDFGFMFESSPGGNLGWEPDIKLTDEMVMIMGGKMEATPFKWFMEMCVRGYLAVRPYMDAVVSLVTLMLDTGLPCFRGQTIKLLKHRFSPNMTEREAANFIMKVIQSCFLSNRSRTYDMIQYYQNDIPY
UniProt Q6PCE3: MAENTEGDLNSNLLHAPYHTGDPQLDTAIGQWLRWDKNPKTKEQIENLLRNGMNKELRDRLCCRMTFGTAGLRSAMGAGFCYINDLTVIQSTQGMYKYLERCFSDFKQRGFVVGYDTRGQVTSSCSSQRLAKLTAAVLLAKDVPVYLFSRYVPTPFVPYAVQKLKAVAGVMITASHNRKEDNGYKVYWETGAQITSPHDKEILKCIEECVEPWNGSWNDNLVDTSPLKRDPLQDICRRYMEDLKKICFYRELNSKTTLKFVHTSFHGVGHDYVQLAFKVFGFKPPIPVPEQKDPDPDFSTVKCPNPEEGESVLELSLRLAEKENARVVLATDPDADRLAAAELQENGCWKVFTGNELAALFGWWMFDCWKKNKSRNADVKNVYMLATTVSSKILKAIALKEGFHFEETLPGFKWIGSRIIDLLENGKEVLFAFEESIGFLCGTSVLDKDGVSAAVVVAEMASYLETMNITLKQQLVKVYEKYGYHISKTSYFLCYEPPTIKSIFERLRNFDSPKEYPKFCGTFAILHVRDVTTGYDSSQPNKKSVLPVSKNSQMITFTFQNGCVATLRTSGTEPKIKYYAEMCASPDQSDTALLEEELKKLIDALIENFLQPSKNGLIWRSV
UniProt Q6P4A8: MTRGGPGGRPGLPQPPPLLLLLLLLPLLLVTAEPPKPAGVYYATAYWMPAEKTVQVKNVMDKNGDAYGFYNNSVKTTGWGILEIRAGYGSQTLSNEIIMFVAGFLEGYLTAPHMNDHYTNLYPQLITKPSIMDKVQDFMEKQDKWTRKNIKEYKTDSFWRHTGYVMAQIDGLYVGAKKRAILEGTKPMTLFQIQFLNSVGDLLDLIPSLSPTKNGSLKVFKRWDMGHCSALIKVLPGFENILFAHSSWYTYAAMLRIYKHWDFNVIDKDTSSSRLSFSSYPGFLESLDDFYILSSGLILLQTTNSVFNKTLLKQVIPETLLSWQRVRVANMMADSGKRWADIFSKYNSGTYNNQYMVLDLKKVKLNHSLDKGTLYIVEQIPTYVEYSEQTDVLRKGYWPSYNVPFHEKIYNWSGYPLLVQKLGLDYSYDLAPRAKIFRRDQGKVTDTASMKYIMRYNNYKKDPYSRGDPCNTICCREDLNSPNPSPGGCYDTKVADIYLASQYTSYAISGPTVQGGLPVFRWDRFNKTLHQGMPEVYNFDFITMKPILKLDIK
UniProt P11309, whole entry, looked up: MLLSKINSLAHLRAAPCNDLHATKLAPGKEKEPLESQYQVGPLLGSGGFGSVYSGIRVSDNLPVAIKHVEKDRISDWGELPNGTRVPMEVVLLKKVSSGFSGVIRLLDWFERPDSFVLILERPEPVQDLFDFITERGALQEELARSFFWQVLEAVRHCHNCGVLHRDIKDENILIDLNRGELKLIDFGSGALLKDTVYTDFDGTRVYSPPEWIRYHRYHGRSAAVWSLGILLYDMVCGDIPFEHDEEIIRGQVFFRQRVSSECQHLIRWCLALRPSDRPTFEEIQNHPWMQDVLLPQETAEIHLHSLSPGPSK
UniProt O43164: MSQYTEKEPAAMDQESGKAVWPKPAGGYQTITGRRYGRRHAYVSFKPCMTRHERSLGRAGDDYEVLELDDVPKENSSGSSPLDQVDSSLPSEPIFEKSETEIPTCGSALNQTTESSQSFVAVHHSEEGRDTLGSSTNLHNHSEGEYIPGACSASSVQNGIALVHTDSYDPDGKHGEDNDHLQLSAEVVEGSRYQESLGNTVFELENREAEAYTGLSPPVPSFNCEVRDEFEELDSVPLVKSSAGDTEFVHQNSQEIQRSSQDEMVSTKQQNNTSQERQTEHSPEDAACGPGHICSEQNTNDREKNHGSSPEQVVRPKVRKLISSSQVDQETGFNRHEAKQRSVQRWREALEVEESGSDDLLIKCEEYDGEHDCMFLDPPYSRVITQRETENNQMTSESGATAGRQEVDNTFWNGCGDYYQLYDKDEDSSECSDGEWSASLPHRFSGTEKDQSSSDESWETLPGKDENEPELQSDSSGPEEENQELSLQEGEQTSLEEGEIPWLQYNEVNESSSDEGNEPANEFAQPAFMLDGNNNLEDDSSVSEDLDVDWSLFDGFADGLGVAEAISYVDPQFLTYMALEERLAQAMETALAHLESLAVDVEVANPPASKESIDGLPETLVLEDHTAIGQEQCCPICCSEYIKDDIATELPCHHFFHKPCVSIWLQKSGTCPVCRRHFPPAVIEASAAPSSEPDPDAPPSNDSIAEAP
UniProt Q32NB8: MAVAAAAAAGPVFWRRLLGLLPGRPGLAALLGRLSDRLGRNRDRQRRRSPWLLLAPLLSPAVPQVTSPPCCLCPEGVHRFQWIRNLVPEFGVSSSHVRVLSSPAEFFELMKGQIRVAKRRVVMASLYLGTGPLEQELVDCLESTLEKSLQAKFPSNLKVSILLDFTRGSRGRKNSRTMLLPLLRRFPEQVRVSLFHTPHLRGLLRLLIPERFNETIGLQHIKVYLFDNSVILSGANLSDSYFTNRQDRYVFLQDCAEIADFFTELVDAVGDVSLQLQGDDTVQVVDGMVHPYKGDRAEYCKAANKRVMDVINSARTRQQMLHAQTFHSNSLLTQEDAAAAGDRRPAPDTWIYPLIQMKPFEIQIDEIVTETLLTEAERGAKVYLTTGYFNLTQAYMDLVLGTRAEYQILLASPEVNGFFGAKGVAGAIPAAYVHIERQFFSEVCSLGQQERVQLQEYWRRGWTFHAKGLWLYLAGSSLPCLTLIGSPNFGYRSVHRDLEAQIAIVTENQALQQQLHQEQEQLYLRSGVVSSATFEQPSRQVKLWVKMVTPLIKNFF

Assays:
Test in all cases: log2 fold change, soluble protein after heating vs DMSO (PISA); higher = thermal stabilisation; K562 lysate, 10 uM; active = over 0.2 and 3.5 SD of the protein, either way, in both replicates (recomputed)
[1] = compound: C#Cc1cccc(Nc2ncnc3cc(OCCOC)c(OCCOC)cc23)c1 [erlotinib]
Method in brief: (§1)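 Thermal stability, expressed as log-two fold change relative to solvent controls, is given from duplicates. Crude K562 extract in PBS pH 7.4 with 1 mM MgCl2, at 1 mg/mL protein, was treated with 10 μM compound for 30 min and heated in aliquots for 3 min across 48°C-58°C. After pooling, adjustment to 0.5% NP-40 at 4°C and centrifugation at 21,000xg for 90 min, supernatant protein was measured by TMTpro 16plex LC-MS/MS with channel sums equalised.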

[2] = compound: C/C(=N\NC(=O)C1=CC(=CC=C1)S(=O)(=O)N2CCOCC2)/C3=C(C=CC(=C3)Cl)O
Method in brief: as §1

[3] = compound: C1=CC(=CC=C1C2=NC3=C(N2)C=C(C=C3)C(=O)N)OC4=CC=C(C=C4)Cl
Method in brief: as §1

[4] = compound: C1=CC2=C(C=CC(=C2)/C=C\3/C(=O)NC(=NCC4=CC=CS4)S3)N=C1
Method in brief: as §1

[5] = compound: C1=CC2=NC=CN=C2C=C1/C=C/3\C(=O)NC(=O)S3
Method in brief: as §1

[6] = compound: C1=CC=C(C=C1)C2=NC(=C(N2)C3=CC=NC=C3)C4=CC(=C(C=C4)Cl)O
Method in brief: as §1

[7] = compound: C1=CC=C2C(=C1)C3=NNC4=CC=CC(=C43)C2=O
Method in brief: as §1

[8] = compound: C1CCN(C1)C(=O)NC2=CC=CC(=C2)NC3=NC=C(C(=N3)NCCC4=CN=CN4)Br
Method in brief: as §1

[9] = compound: C1CN(CCC1(CC2=CC=C(C=C2)Cl)N)C3=NC=NC4=C3C=CN4
Method in brief: as §1

[10] = compound: C1COCCN1CCN2C3=CC=CC=C3N=C2NC(=O)C4=CC(=CC=C4)[N+](=O)[O-] [IRAK-1-4 Inhibitor I]
Method in brief: as §1

Measured: log2 fold change

PICALM (UniProt H0YEH1)
inactive: [1] -0.004 | [2] -0.111 | [3] 0.053 | [4] 0.066 | [5] -0.021 | [6] -0.015 | [7] 0.106 | [8] -0.219 | [9] -0.333 | [10] 0.053

PIP4P1 isoform 2 (UniProt Q86T03)
inactive: [1] 0.008 | [2] -0.051 | [3] 0.084 | [4] 0.042 | [5] -0.033 | [6] 0.005 | [7] -0.038 | [8] -0.005 | [9] -0.033 | [10] 0.025

PIK3C3 (UniProt Q8NEB9)
inactive: [1] 0.014 | [2] -0.059 | [3] 0.004 | [4] 0.017 | [5] 0.025 | [6] 0.009 | [7] 0.053 | [8] -0.084 | [9] 0.015 | [10] 0.081

PIGA (UniProt P37287)
inactive: [1] 0.001 | [2] 0.102 | [3] -0.124 | [4] 0.021 | [5] -0.003 | [6] 0.055 | [7] -0.052 | [8] -0.041 | [9] 0.023 | [10] 0.022

PITRM1 isoform 2 (UniProt Q5JRX3)
inactive: [1] -0.035 | [2] 0.011 | [3] 0.077 | [4] 0.04 | [5] -0.037 | [6] -0.025 | [7] 0.009 | [8] 0.016 | [9] 0.024 | [10] -0.015

PHB2 (UniProt Q99623)
inactive: [1] -0.01 | [2] 0.012 | [3] -0.012 | [4] -0.01 | [5] 0.007 | [6] 0.005 | [7] 0.031 | [8] 0.005 | [9] -0.012 | [10] 0.002

PHB (UniProt P35232)
inactive: [1] -0.008 | [2] -0.023 | [3] -0.01 | [4] -0.015 | [5] -0.066 | [6] -0.022 | [7] 0.025 | [8] 0.01 | [9] -0.008 | [10] 0.012

PI4K2B (UniProt Q8TCG2)
inactive: [1] 0.023 | [2] 0.035 | [3] -0.041 | [4] -0.089 | [5] -0.002 | [6] -0.047 | [7] 0.009 | [8] -0.07 | [9] 0.136 | [10] 0.026

PGP (UniProt A6NDG6)
inactive: [1] -0.008 | [2] 0.027 | [3] -0.016 | [4] 0.014 | [5] 0.01 | [6] 0.016 | [7] 0.038 | [8] 0.03 | [9] 0.005 | [10] 0.008

PIGO (UniProt Q8TEQ8)
inactive: [1] 0.179 | [2] -0.423 | [3] -0.266 | [4] 0.242 | [5] 0.132 | [6] 0.001 | [7] -0.285 | [8] -0.001 | [9] 0.117 | [10] 0.114

Two records drawn at random from those above:
PITRM1 isoform 2 (UniProt Q5JRX3)
inactive: [1] -0.035 | [2] 0.011 | [3] 0.077 | [4] 0.04 | [5] -0.037 | [6] -0.025 | [7] 0.009 | [8] 0.016 | [9] 0.024 | [10] -0.015

PIGO (UniProt Q8TEQ8)
inactive: [1] 0.179 | [2] -0.423 | [3] -0.266 | [4] 0.242 | [5] 0.132 | [6] 0.001 | [7] -0.285 | [8] -0.001 | [9] 0.117 | [10] 0.114

More results follow.

PHF6 (UniProt Q8IWS0)
inactive: [1] -0.056 | [2] 0.027 | [3] -0.035 | [4] 0.006 | [5] 0.016 | [6] 0.005 | [7] 0.021 | [8] -0.001 | [9] 0.025 | [10] -0.075

PI4KA (UniProt P42356)
inactive: [1] 0.018 | [2] -0.014 | [3] -0.055 | [4] 0.035 | [5] 0.075 | [6] -0.028 | [7] -0.027 | [8] -0.021 | [9] 0.02 | [10] -0.003

PKLR (UniProt P30613)
inactive: [1] -0.017 | [2] -0.029 | [3] 0.038 | [4] -0.014 | [5] 0.009 | [6] -0.01 | [7] 0.009 | [8] 0.007 | [9] 0.008 | [10] 0.01

PGM2L1 (UniProt Q6PCE3)
inactive: [1] -0.042 | [2] -0.027 | [3] 0.022 | [4] 0.021 | [5] -0.017 | [6] 0.018 | [7] -0.003 | [8] 0.002 | [9] 0.034 | [10] 0

PGGT1B (UniProt P53609)
inactive: [1] -0.02 | [2] 0.039 | [3] -0.076 | [4] -0.011 | [5] 0.047 | [6] 0.14 | [7] 0.045 | [8] 0.008 | [9] -0.018 | [10] -0.006

PHACTR4 isoform 2 (UniProt Q8IZ21)
inactive: [1] 0.003 | [2] -0.02 | [3] 0.012 | [4] -0.004 | [5] -0.021 | [6] 0.021 | [7] 0.013 | [8] -0.017 | [9] 0.052 | [10] 0.011

PHPT1 (UniProt Q9NRX4)
inactive: [1] 0.019 | [2] 0.095 | [3] -0.062 | [4] -0.02 | [5] -0.014 | [6] 0.001 | [7] 0.036 | [8] 0.04 | [9] 0.032 | [10] -0.047

PLBD1 (UniProt Q6P4A8)
inactive: [1] 0.006 | [2] -0.015 | [3] 0.043 | [4] 0.016 | [5] 0.03 | [6] 0.028 | [7] -0.058 | [8] 0.019 | [9] 0.067 | [10] -0.015

PI4KB (UniProt Q9UBF8)
inactive: [1] 0.017 | [2] -0.108 | [3] -0.011 | [4] 0.038 | [5] 0.173 | [6] 0.011 | [7] 0.193 | [8] 0.01 | [9] -0.065 | [10] -0.003

PIM1 isoform 2 (UniProt P11309)
inactive: [1] 0.118 | [2] -0.106 | [3] -0.164 | [4] 0.028 | [5] 0.238 | [6] 0.123 | [7] -0.034 | [8] -0.077 | [9] 0.02 | [10] -0.076

PLAA (UniProt Q9Y263)
inactive: [1] -0.022 | [2] 0.012 | [3] 0.025 | [4] 0.005 | [5] -0.002 | [6] -0.004 | [7] 0.006 | [8] -0.008 | [9] -0.007 | [10] -0.008

PHKA1 (UniProt P46020)
inactive: [1] -0.011 | [2] 0.003 | [3] -0.015 | [4] 0.063 | [5] 0.078 | [6] -0.027 | [7] 0.205 | [8] 0.05 | [9] 0.026 | [10] 0.01

PHKB isoform 3 (UniProt Q93100)
inactive: [1] -0.053 | [2] -0.049 | [3] 0 | [4] 0.044 | [5] 0.082 | [6] 0.036 | [7] 0.142 | [8] 0.038 | [9] 0.01 | [10] 0.006

PJA2 (UniProt O43164)
inactive: [1] 0.019 | [2] -0.07 | [3] -0.029 | [4] -0.004 | [5] 0.018 | [6] 0.019 | [7] 0.028 | [8] -0.019 | [9] 0.027 | [10] 0.039

PGS1 (UniProt Q32NB8)
inactive: [1] -0.019 | [2] -0.265 | [3] -0.162 | [4] 0.222 | [5] 0.131 | [6] -0.016 | [7] -0.121 | [8] -0.066 | [9] 0.071 | [10] 0.038

PHYKPL (UniProt Q8IUZ5)
inactive: [1] 0.011 | [2] -0.035 | [3] -0.043 | [4] 0.008 | [5] 0.045 | [6] -0.05 | [7] -0.023 | [8] 0.093 | [9] -0.041 | [10] -0.003

PLBD2 (UniProt Q8NHP8)
inactive: [1] -0.022 | [2] 0.024 | [3] 0.001 | [4] -0.058 | [5] -0.036 | [6] 0.021 | [7] 0.028 | [8] 0.045 | [9] 0 | [10] 0.007
